Assay results taken from paper doi:10.1101/2020.04.13.038935.
These are yes or no findings as the source states them, for the method shown. In cells and extracts the contact can be indirect. Some entries that bind do so weakly or less than the wild type.

Target: wild-type p53 tumor suppressor (human (endogenous in A549)), P04637
Experiment: co-IP
Details: remark: other sources report otherwise

binding: binds
B1: Anterior GRadient 2 (AGR2, PDIA17), O95994 21-175 (protein)
chain: RDTTVKPGAKKDTKDSRPKLPQTLSRGWGDQLIWTQTYEEALYKSKTSNKPLMIIHHLDECPHSQALKKVFAENKEIQKLAEQFVLLNLVYETTDKHLSPDGQYVPRIMFVDPSLTVRADITGRYSNRLYAYEPADTALLLDNMKKALKLLKTEL
